Laboratory results reported in publication PMC3296696.
These are yes or no findings as the source states them, for the method shown. In cells and extracts the contact can be indirect. Some binding calls cover weakened binding; strength is not graded here.

Amino acid sequences for entries named in this document (tags omitted). A change or cut given only in a name is not applied to a line headed by its entry. Chains listed by the source or under a name are the forms on record and can include a tag or linker.
UniProt Q13526: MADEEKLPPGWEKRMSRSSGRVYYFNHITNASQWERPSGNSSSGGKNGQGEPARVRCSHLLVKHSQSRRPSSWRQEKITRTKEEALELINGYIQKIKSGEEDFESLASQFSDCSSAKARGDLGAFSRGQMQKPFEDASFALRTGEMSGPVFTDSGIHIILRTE
HA-CREB wild-type (P16220-1, form named): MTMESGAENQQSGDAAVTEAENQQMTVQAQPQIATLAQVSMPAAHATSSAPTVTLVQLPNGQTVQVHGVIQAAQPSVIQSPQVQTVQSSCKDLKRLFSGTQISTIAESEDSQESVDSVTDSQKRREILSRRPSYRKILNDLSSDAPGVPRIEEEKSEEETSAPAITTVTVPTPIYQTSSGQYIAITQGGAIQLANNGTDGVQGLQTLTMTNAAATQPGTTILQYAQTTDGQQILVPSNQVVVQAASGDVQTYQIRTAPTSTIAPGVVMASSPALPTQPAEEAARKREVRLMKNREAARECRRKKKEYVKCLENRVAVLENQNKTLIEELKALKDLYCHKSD

Biological target: GST-Pin1 (UniProt Q13526)
Assay: pull-down; lysates of COS-7 cells transfected with HA-CREB (stimulated with 10 µM forskolin for 6 hr) incubated with 30 µg of GST-Pin1 for 30 min at 4°C, then glutathione-sepharose 4B beads for 1 hr at 4°C; washed three times; blot with anti-HA antibody; only the target purified

binding: binds
Substance: HA-CREB wild-type (from UniProt P16220-1 1-341)
